Test results taken from patent publication US20230287391A1, “KRAB FUSION REPRESSORS AND METHODS AND COMPOSITIONS FOR REPRESSING GENE EXPRESSION” (THE GOVERNING COUNCIL OF THE UNIVERSITY OF TORONTO, priority 2020, published 2023).
These are yes or no findings as the source states them, for the method shown. Some results given as binding are weak or reduced against the parent protein; the word gives no strength.

By UniProt entry, the sequences of proteins in these tests, tags left out. Where a name states a change or a piece, a line headed by the entry shows the natural chain unless it says otherwise. Residues count along the entry.
UniProt Q13263: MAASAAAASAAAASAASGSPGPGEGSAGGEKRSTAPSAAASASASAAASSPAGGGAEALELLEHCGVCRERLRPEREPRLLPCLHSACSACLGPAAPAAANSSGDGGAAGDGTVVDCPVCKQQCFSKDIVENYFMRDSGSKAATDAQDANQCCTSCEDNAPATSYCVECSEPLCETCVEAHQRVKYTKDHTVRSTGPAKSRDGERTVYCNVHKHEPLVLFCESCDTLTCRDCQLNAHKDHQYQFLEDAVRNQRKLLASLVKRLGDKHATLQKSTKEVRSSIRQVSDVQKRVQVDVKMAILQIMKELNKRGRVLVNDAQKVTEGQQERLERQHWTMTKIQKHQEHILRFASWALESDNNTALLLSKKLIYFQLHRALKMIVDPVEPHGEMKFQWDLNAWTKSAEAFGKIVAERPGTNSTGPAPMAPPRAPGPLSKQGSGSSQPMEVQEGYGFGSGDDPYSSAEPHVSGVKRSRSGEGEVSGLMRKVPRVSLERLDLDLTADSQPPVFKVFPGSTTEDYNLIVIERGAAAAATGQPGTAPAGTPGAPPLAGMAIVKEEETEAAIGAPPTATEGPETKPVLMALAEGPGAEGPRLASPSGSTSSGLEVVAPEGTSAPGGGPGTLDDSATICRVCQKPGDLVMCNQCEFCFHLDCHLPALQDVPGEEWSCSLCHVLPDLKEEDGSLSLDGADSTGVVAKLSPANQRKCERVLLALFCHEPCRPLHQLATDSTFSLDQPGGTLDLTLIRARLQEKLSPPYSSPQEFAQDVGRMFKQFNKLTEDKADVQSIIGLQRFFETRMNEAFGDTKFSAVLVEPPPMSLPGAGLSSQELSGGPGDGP
UniProt Q96PE6: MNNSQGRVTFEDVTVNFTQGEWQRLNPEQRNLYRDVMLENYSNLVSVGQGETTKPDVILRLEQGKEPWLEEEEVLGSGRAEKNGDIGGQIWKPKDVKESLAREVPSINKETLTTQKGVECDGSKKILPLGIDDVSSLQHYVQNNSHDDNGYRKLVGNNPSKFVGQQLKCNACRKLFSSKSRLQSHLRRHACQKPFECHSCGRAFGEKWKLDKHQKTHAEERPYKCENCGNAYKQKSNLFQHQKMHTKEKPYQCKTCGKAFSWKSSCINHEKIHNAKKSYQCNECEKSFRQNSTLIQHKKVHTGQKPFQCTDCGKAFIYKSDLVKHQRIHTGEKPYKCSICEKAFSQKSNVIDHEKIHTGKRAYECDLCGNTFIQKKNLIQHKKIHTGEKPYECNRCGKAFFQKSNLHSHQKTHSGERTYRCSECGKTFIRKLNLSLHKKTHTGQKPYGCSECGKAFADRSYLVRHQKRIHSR
UniProt P21506, residues 1-105: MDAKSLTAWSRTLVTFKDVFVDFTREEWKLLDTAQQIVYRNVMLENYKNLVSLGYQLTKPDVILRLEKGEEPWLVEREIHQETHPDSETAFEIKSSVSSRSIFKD

Target: NLuc-tagged TRIM28 (tag at the C-terminus) (UniProt Q13263)
Experiment: LUMIER in 293T cells: KRAB-EGFP-3xFLAG bait captured on anti-FLAG plate, luminescence of NLuc-TRIM28

Row | binding | Substance
1 | binds | ZIM3 KRAB domain C-terminally tagged with EGFP-3xFLAG (from UniProt Q96PE6 1-100)
2 | binds | KOX1 KRAB domain C-terminally tagged with EGFP-3xFLAG (from UniProt P21506 1-105)
